Assay results: patent publication US8592421B2, “Cyclic bioisosters of purine system derivatives and a pharmaceutical composition based thereon” (priority 2003, dated 2013)

Test: Morphine abstinence model: indicator enzymes ALT, AST, γ-GTP in blood plasma
Conditions: control + Morphine (morphinized rats)
Experimental: The experiments were carried out on rats in series of 7 animals on each compound according to the invention. Non-morphinized animal with not administered with compounds according to the invention were used as a control group. […] Then the rats were decapitated, the blood from somnolent arteries was collected in test tubes with solution EDTA as an anticoagulant, centrifuged at 1500 g for 15 minutes at 4° C.
To estimate possible hepatoprotective action of the compounds according to the invention under conditions of development of an oxidizing stress in the liver cells, effect of these compounds on the most important biochemical blood indexes, in particular, on the content in blood plasma of indicator enzyme of aspartateaminotransferase (AST), alanineaminotransferase (ALT), γ-glutamiletranspeptidase (γ-GTP) was investigated. The content of enzymes was estimated by their catalyzing activity in blood plasma.
The activity of AST, ALT and γ-GTP was determined by means of diagnostic sets DiaSys, Germany.

Compound: CN1CC[C@]23c4c5ccc(O)c4O[C@H]2[C@@H](O)C=C[C@H]3[C@H]1C5 [Morphine, morphine, reference compound]
- γ-GTP in blood plasma, Ci (control 6.261 ± 1.80): 16.80 ± 13.32 mE/l
- ALT in blood plasma, Ci (control 106.76 ± 111.35): 116.12 ± 110.44 mE/l
- AST in blood plasma, Ci (control 179.881 ± 11.94): 238.201 ± 14.71 mE/l
